{"source": "PubChem BioAssay AID330", "about": "(DTP/NCI, 2004)", "system": "P388 leukemia ip, CD2F1 mice, survival T/C", "assay": "NCI In Vivo Anticancer Drug Screen. Data for tumor model P388 Leukemia (intraperitoneal) in CD2F1 (CDF1) mice", "details": "T/C endpoint: median survival time, higher T/C = longer survival", "key": {"[1]": {"details": "dose: 50.0 mg/kg/injection, schedule: Q01DX005 (ip), vehicle: saline with Tween-80"}, "[2]": {"details": "dose: 100.0 mg/kg/injection, schedule: Q01DX005 (ip), vehicle: saline with Tween-80"}, "[3]": {"details": "dose: 200.0 mg/kg/injection, schedule: Q01DX005 (ip), vehicle: saline with Tween-80"}, "[4]": {"details": "dose: 100.0 mg/kg/injection, schedule: Q01DX005 (ip), vehicle: Klucel (hydroxypropylcellulose) (HPC)"}, "[5]": {"details": "dose: 200.0 mg/kg/injection, schedule: Q01DX005 (ip), vehicle: Klucel (hydroxypropylcellulose) (HPC)"}}, "note": "The list does not hold the whole screen: it gathers tests that were run many times, whatever their T/C, doses with no T/C, and many T/C values between a quarter and a half above the control. Further doses and runs are listed elsewhere. T/C is the treated group as % of the vehicle group. Some doses have a count of surviving animals in place of a T/C: the source files T/C as zero there, which appears to mark a toxic dose or a test without result, not a measured value. Some doses without a T/C left all or most animals alive at the check, yet need not have been tolerated: the source hardly ever lists a survival T/C far under the control, and the zero likely stands for such cases as well. Survivors were counted at the toxicity check, usually on the fifth day, unless a day is given; later deaths do not show. Schedule codes are those of the source, taken here to give the interval after Q, in days (D) or hours (H), and the number of doses after X. Where survival is the endpoint, the PubChem record calls one and a half times the control and up active, and a quarter to a half above the control has no call in these data; cut-offs in other NCI protocols can differ.", "data": [{"smiles": "NC(N)=O.NC(N)=O.NC(N)=O.NC(N)=O.NC(N)=O.NC(N)=O.[Cr]", "values": [{"measurement": "survivor count", "setting": "dose: 50.0 mg/kg/injection, schedule: Q04DX003 (ip), vehicle: saline", "result": "3 of 6"}, {"measurement": "survivor count", "setting": "dose: 100.0 mg/kg/injection, schedule: Q04DX003 (ip), vehicle: saline", "result": "0 of 6"}, {"measurement": "survivor count", "setting": "dose: 200.0 mg/kg/injection, schedule: Q04DX003 (ip), vehicle: saline", "result": "0 of 6"}, {"measurement": "survivor count", "setting": "dose: 400.0 mg/kg/injection, schedule: Q04DX003 (ip), vehicle: saline", "result": "0 of 6"}]}, {"smiles": "O=C1Nc2ccccc2C(c2ccccc2)=NC1C1(O)CCCCC1", "note": "(stereo not drawn)", "values": [{"measurement": "survivor count", "setting": "[1]", "result": "6 of 6"}, {"measurement": "survivor count", "setting": "[2]", "result": "6 of 6"}, {"measurement": "survivor count", "setting": "[3]", "result": "6 of 6"}]}, {"smiles": "CC(Cl)CN(Cc1cc(O)c(CN(CC(C)Cl)CC(C)Cl)cc1O)CC(C)Cl", "note": "(stereo not drawn)", "values": [{"measurement": "T/C", "setting": "dose: 100.0 mg/kg/injection, schedule: Q04DX003 (ip), vehicle: Klucel (hydroxypropylcellulose) (HPC)", "result": "127 % of control"}, {"measurement": "T/C", "setting": "dose: 400.0 mg/kg/injection, schedule: Q04DX003 (ip), vehicle: Klucel (hydroxypropylcellulose) (HPC)", "result": "136 % of control"}]}, {"smiles": "O=c1c(Cl)c(Cl)oc(Cl)c1Cl", "values": [{"measurement": "survivor count", "setting": "[3]", "result": "0 of 6"}]}, {"smiles": "Nc1c(-c2ncc[nH]2)[nH]c2cc(-c3ncc[nH]3)ccc12", "values": [{"measurement": "survivor count", "setting": "dose: 120.0 mg/kg/injection, schedule: Q01DX005 (ip), vehicle: Klucel (hydroxypropylcellulose) (HPC)", "result": "0 of 6"}, {"measurement": "survivor count", "setting": "dose: 240.0 mg/kg/injection, schedule: Q01DX005 (ip), vehicle: Klucel (hydroxypropylcellulose) (HPC)", "result": "0 of 6"}]}, {"smiles": "Cc1cc(C)c2c(c1)CC(C)(C)C(=O)OC2=O", "values": [{"measurement": "survivor count", "setting": "dose: 240.0 mg/kg/injection, schedule: Q01DX005 (ip), vehicle: saline with Tween-80", "result": "0 of 6"}]}, {"smiles": "COC1NC(=S)N(C(C)(C)C)C1(C)C", "note": "(stereo not drawn)", "values": [{"measurement": "survivor count", "setting": "dose: 100.0 mg/kg/injection, schedule: Q01DX009 (ip), vehicle: suspension in saline", "result": "3 of 6"}, {"measurement": "survivor count", "setting": "dose: 200.0 mg/kg/injection, schedule: Q01DX009 (ip), vehicle: suspension in saline", "result": "0 of 6"}]}, {"smiles": "c1cnc2ccc3ncccc3c2c1", "values": [{"measurement": "survivor count", "setting": "[4]", "result": "2 of 5"}, {"measurement": "survivor count", "setting": "[5]", "result": "0 of 5"}]}, {"smiles": "Cc1ccc(S(=O)(=O)NC(=O)C2C(=O)CC3(CCCCC3)CC2=O)cc1", "values": [{"measurement": "survivor count", "setting": "dose: 400.0 mg/kg/injection, schedule: Q01DX009 (ip), vehicle: Klucel (hydroxypropylcellulose) (HPC)", "result": "3 of 6"}]}, {"smiles": "CSc1nc(=O)c(=O)nc(Nc2ccccc2)n1-c1ccccc1", "values": [{"measurement": "survivor count", "setting": "dose: 100.0 mg/kg/injection, schedule: Q01DX009 (ip), vehicle: saline with Tween-80", "result": "6 of 6"}]}, {"smiles": "CCSc1ccc(N2C(N)=NC(N)=NC2(C)C)cc1", "values": [{"measurement": "survivor count", "setting": "[1]", "result": "0 of 5"}, {"measurement": "survivor count", "setting": "[2]", "result": "0 of 5"}, {"measurement": "survivor count", "setting": "[3]", "result": "0 of 5"}]}, {"smiles": "Cn1/c2cc/c1=C(\\c1ccccc1)c1ccc([n-]1)/C(c1ccccc1)=c1/cc/c([nH]1)=C(\\c1ccccc1)c1ccc([n-]1)/C=2c1ccccc1.O.O=S(=O)(O)C(F)(F)F.[Cu+2]", "values": [{"measurement": "survivor count", "setting": "dose: 100.0 mg/kg/injection, schedule: Q01DX009 (ip), vehicle: other", "result": "6 of 6"}, {"measurement": "survivor count", "setting": "dose: 200.0 mg/kg/injection, schedule: Q01DX009 (ip), vehicle: other", "result": "6 of 6"}]}, {"smiles": "CC(C)(C)c1cc(C#CC#Cc2cc(C(C)(C)C)cc(C(C)(C)C)c2)cc(C(C)(C)C)c1", "values": [{"measurement": "survivor count", "setting": "[4]", "result": "6 of 6"}, {"measurement": "survivor count", "setting": "[5]", "result": "6 of 6"}]}, {"smiles": "O=C(Nc1ccc(-c2ccc(NC(=O)C34CC5CC(CC(C5)C3)C4)cc2)cc1)C12CC3CC(CC(C3)C1)C2", "values": [{"measurement": "survivor count", "setting": "dose: 50.0 mg/kg/injection, schedule: Q01DX005 (ip), vehicle: Klucel (hydroxypropylcellulose) (HPC)", "result": "5 of 6"}, {"measurement": "survivor count", "setting": "[5]", "result": "3 of 6"}]}, {"smiles": "CC[C@@H](C)C(=O)O[C@H]1[C@H](O)[C@H]2[C@@H](CN3C[C@@H](C)CC[C@H]3[C@@]2(C)O)[C@@H]2CC34O[C@]5(O)[C@@H](OC(=O)[C@@](C)(O)CC)CC[C@@]3(C)[C@@H]5[C@@H](OC(C)=O)[C@@H](OC(C)=O)[C@H]4[C@@]21O", "values": [{"measurement": "survivor count", "setting": "dose: 0.2 mg/kg/injection, schedule: Q01DX005 (ip), vehicle: saline", "result": "0 of 6"}, {"measurement": "survivor count", "setting": "dose: 0.4 mg/kg/injection, schedule: Q01DX005 (ip), vehicle: saline", "result": "0 of 6"}, {"measurement": "survivor count", "setting": "dose: 0.8 mg/kg/injection, schedule: Q01DX005 (ip), vehicle: saline with Tween-80", "result": "0 of 6"}, {"measurement": "survivor count", "setting": "dose: 1.6 mg/kg/injection, schedule: Q01DX005 (ip), vehicle: saline with Tween-80", "result": "0 of 6"}, {"measurement": "survivor count", "setting": "dose: 3.12 mg/kg/injection, schedule: Q01DX005 (ip), vehicle: saline with Tween-80", "result": "0 of 6"}, {"measurement": "survivor count", "setting": "dose: 6.25 mg/kg/injection, schedule: Q01DX005 (ip), vehicle: saline with Tween-80", "result": "0 of 6"}, {"measurement": "survivor count", "setting": "dose: 12.5 mg/kg/injection, schedule: Q01DX005 (ip), vehicle: saline with Tween-80", "result": "0 of 6"}, {"measurement": "survivor count", "setting": "[1]", "result": "0 of 5"}, {"measurement": "survivor count", "setting": "[2]", "result": "0 of 5"}, {"measurement": "survivor count", "setting": "[3]", "result": "0 of 5"}]}]}
